Source: PMC7862700
Only a part is listed here, and it is no random draw. For part of these data: At the low end of the ranking, values are background and their order means little. The list shows a part of the results. For part of these data: The source does not settle which construct or isoform was used.

Chains of the proteins cited; added tags and fusions are not shown. Lines headed by an entry give the natural chain unless they say otherwise; changes in a name come on top.
UniProt P32519: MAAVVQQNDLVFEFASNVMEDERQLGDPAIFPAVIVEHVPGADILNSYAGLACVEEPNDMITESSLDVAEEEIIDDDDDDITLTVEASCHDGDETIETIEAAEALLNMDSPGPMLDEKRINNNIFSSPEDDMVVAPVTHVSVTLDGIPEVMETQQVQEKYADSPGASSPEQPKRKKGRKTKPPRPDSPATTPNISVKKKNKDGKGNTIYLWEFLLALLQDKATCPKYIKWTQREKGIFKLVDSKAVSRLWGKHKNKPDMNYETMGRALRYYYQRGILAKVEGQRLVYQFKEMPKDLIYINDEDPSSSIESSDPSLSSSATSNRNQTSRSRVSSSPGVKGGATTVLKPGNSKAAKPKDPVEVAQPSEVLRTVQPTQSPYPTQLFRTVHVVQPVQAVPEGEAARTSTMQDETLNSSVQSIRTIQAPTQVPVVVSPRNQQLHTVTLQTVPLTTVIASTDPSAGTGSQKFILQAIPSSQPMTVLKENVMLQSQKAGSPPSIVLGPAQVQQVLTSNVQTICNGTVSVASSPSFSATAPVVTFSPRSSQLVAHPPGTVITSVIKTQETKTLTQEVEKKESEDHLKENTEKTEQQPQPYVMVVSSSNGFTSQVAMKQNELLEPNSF
UniProt P50549: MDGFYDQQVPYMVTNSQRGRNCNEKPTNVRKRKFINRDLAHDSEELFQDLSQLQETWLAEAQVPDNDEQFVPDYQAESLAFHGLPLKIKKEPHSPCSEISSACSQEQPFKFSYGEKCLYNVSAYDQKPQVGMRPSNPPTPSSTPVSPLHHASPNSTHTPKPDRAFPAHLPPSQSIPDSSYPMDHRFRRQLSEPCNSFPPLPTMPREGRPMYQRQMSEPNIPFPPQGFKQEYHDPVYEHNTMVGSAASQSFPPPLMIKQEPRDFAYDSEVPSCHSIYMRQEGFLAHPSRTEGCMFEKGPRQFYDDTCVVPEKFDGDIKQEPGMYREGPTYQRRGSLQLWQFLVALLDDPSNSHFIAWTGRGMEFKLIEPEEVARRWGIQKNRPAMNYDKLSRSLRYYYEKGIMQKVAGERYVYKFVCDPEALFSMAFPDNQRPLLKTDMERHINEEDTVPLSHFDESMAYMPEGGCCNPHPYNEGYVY

Key:
Assay in all cases: DAPPL (digital affinity profiling via proximity ligation, sequencing)
Settings in all cases: 10 mM Tris-HCl pH 7.5, 50 mM NaCl, 1 mM DTT, 4% glycerol, room temperature, 30 min; GST-TFs on glutathione beads, 16-mer random dsDNA library, 0.1% …; high values mean tight binding; double strand, one strand shown; scale: fold enrichment (6-mer frequency, TF over GST control)
ERG = biological target: T1, ERG (UniProt P11308)
T1 sequence: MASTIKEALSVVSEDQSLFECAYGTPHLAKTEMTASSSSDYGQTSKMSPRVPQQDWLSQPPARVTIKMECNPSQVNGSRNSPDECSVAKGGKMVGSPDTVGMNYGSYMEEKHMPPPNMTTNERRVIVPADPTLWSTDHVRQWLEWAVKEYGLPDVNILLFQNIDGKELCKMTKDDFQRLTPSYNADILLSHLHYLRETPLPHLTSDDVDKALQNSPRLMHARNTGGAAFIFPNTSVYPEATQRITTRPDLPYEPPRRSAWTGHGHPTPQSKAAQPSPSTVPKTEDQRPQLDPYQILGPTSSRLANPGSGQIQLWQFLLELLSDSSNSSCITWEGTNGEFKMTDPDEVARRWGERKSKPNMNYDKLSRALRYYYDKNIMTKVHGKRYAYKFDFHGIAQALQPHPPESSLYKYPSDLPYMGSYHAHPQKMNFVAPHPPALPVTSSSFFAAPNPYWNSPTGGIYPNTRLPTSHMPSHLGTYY

ELF1 = ELF1 (UniProt P32519)
ELK4 = biological target: T2, ELK4 (UniProt P28324-2)
T2 sequence: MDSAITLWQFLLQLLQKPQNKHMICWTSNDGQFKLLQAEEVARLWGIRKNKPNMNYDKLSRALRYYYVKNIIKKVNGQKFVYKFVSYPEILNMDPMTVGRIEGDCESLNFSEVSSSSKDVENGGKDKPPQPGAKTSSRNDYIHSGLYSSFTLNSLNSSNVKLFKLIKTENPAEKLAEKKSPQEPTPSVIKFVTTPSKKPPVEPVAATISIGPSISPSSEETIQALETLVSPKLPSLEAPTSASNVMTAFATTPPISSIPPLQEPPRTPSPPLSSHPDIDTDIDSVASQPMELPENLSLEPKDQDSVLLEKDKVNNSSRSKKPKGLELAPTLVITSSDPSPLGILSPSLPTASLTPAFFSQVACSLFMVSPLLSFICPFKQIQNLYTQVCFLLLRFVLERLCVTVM

ETV4 = biological target: T3, ETV4 (UniProt P43268)
T3 sequence: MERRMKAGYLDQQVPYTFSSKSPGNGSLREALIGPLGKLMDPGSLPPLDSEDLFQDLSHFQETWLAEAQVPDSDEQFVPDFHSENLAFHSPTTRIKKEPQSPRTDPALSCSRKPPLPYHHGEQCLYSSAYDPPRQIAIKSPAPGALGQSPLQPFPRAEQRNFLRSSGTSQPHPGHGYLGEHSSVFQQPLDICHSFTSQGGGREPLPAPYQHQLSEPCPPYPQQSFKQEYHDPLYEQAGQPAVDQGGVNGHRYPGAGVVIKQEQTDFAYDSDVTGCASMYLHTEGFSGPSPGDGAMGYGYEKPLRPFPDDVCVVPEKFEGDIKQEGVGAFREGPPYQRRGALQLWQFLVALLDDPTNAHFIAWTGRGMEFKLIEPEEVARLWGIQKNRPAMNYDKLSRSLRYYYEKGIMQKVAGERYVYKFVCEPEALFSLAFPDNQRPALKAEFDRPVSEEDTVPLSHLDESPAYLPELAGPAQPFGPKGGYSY

ETV1 = ETV1 (UniProt P50549)
ERF = biological target: T4, ERF (UniProt P50548)
T4 sequence: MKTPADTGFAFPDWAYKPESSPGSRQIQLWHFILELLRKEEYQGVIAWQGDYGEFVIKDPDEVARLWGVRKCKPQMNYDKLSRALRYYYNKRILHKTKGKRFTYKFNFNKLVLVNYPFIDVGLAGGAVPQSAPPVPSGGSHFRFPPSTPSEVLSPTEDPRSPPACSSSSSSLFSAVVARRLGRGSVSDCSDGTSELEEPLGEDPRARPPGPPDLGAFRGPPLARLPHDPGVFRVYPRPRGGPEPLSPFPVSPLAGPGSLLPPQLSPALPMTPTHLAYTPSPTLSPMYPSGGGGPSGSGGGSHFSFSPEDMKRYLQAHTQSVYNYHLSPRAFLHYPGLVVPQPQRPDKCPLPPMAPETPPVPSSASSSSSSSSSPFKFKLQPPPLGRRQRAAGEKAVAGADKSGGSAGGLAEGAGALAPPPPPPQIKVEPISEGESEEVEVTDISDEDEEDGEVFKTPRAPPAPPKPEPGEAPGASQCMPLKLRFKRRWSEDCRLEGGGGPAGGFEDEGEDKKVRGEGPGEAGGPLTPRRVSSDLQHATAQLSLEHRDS

Row | Sequence | binding signal (ERG) | binding signal (ELF1) | binding signal (ELK4) | binding signal (ETV4) | binding signal (ETV1) | binding signal (ERF)
1 | GGACGG | 0.55 | 0.525 | 0.434 | 0.518 | 0.503 | 0.529
2 | TGACAG | 0.953 | 0.948 | 0.968 | 0.995 | 0.948 | 0.971
3 | ACGTAG | 0.783 | 0.829 | 0.777 | 0.805 | 0.751 | 0.788
4 | GCGTGC | 0.827 | 0.836 | 0.92 | 0.776 | 0.863 | 0.805
5 | GATTGG | 0.871 | 0.857 | 0.876 | 0.881 | 0.915 | 0.857
6 | GGTTCG | 0.808 | 0.8 | 0.803 | 0.844 | 0.836 | 0.821
7 | CACGTC | 0.907 | 0.854 | 0.806 | 0.827 | 0.875 | 0.815
8 | TAGTGA | 0.566 | 0.528 | 0.639 | 0.539 | 0.534 | 0.588
9 | AGGGGT | 0.791 | 0.795 | 0.819 | 0.796 | 0.805 | 0.837
10 | AGGCAT | 0.82 | 0.775 | 0.926 | 0.817 | 0.826 | 0.809
11 | AGGGAC | 0.728 | 0.757 | 0.73 | 0.792 | 0.76 | 0.862
12 | GGTCAT | 0.902 | 0.829 | 0.915 | 0.784 | 0.857 | 0.884
13 | GAGAGG | 0.481 | 0.515 | 0.492 | 0.487 | 0.484 | 0.497
14 | AGGCCA | 0.638 | 0.669 | 0.669 | 0.648 | 0.692 | 0.646
15 | AAGGTG | 0.895 | 0.949 | 0.884 | 0.865 | 0.889 | 0.978
16 | CGTCAG | 0.854 | 0.854 | 0.907 | 0.908 | 0.879 | 0.783
17 | TTCGTG | 0.798 | 0.858 | 0.896 | 0.916 | 0.86 | 0.916
18 | GGCGTA | 0.707 | 0.703 | 0.675 | 0.678 | 0.68 | 0.66
19 | CGGTGA | 0.442 | 0.5 | 0.438 | 0.454 | 0.494 | 0.444
20 | TGGGGA | 0.785 | 0.822 | 0.782 | 0.866 | 0.814 | 0.799

Row | Sequence | binding signal (ERG) | binding signal (ELF1) | binding signal (ELK4) | binding signal (ETV4) | binding signal (ETV1) | binding signal (ERF)
21 | CAGCAG | 0.782 | 0.869 | 0.878 | 0.912 | 0.821 | 0.806
22 | TGTGAA | 0.794 | 0.834 | 0.86 | 0.808 | 0.941 | 0.779
23 | CGGTAA | 0.984 | 0.979 | 0.904 | 0.932 | 0.948 | 0.882
24 | AAGTCG | 0.527 | 0.497 | 0.451 | 0.49 | 0.526 | 0.486
25 | TACAGT | 0.853 | 0.876 | 0.915 | 0.882 | 0.87 | 0.906
26 | AGTAGT | 0.911 | 0.918 | 0.87 | 0.908 | 0.913 | 0.917
27 | TGGAGT | 0.511 | 0.5 | 0.535 | 0.54 | 0.5 | 0.48
28 | CAGGCA | 0.766 | 0.734 | 0.744 | 0.741 | 0.72 | 0.688
29 | CAAGCG | 0.929 | 0.91 | 0.909 | 0.895 | 0.86 | 0.94
30 | GAGGCT | 0.608 | 0.585 | 0.675 | 0.597 | 0.657 | 0.66
31 | GCCACG | 0.925 | 0.864 | 0.998 | 1.03 | 0.945 | 0.861
32 | ATCGTA | 0.892 | 0.862 | 0.835 | 0.858 | 0.934 | 0.893
33 | TCCAGG | 0.816 | 0.791 | 0.752 | 0.796 | 0.866 | 0.87
34 | CAGGCT | 0.79 | 0.865 | 0.848 | 0.866 | 0.82 | 0.832
35 | TGACGT | 0.923 | 0.916 | 0.919 | 0.888 | 0.918 | 0.904
36 | AAGAGC | 0.825 | 0.897 | 0.765 | 0.857 | 0.887 | 0.878
37 | TGCCGT | 0.788 | 0.921 | 0.89 | 0.875 | 0.803 | 0.747
38 | CGCAGA | 0.796 | 0.733 | 0.803 | 0.787 | 0.784 | 0.786
39 | CGTAGA | 0.723 | 0.751 | 0.773 | 0.693 | 0.681 | 0.728
40 | GTCCAG | 0.676 | 0.604 | 0.627 | 0.63 | 0.621 | 0.576

A run of entries taken from the entries so far:
Row | Sequence | binding signal (ERG) | binding signal (ELF1) | binding signal (ELK4) | binding signal (ETV4) | binding signal (ETV1) | binding signal (ERF)
35 | TGACGT | 0.923 | 0.916 | 0.919 | 0.888 | 0.918 | 0.904
36 | AAGAGC | 0.825 | 0.897 | 0.765 | 0.857 | 0.887 | 0.878
37 | TGCCGT | 0.788 | 0.921 | 0.89 | 0.875 | 0.803 | 0.747
38 | CGCAGA | 0.796 | 0.733 | 0.803 | 0.787 | 0.784 | 0.786

Going on with the list:

Row | Sequence | binding signal (ERG) | binding signal (ELF1) | binding signal (ELK4) | binding signal (ETV4) | binding signal (ETV1) | binding signal (ERF)
41 | ACAGCG | 0.848 | 0.859 | 0.878 | 0.768 | 0.856 | 0.795
42 | GATAGA | 0.78 | 0.834 | 0.806 | 0.809 | 0.833 | 0.852
43 | ACGCAT | 0.759 | 0.835 | 0.777 | 0.851 | 0.798 | 0.876
44 | GCTGTG | 0.726 | 0.64 | 0.729 | 0.63 | 0.674 | 0.71
45 | TTGAGT | 0.641 | 0.754 | 0.689 | 0.651 | 0.732 | 0.721
46 | GAGCCT | 0.799 | 0.868 | 0.901 | 0.861 | 0.91 | 0.866
47 | CAGTGA | 0.356 | 0.344 | 0.377 | 0.353 | 0.352 | 0.367
48 | ATCGGA | 0.439 | 0.425 | 0.438 | 0.412 | 0.421 | 0.45
49 | GGGGAT | 0.672 | 0.675 | 0.66 | 0.67 | 0.71 | 0.675
50 | TCAGAG | 0.76 | 0.691 | 0.774 | 0.745 | 0.756 | 0.775
51 | GAGAGC | 0.343 | 0.375 | 0.377 | 0.381 | 0.36 | 0.355
52 | AGACAG | 0.533 | 0.509 | 0.521 | 0.468 | 0.496 | 0.499
53 | CTGAGA | 0.802 | 0.877 | 0.86 | 0.753 | 0.736 | 0.759
54 | AGGCTG | 0.623 | 0.68 | 0.719 | 0.616 | 0.66 | 0.653
55 | GGACAC | 0.782 | 0.787 | 0.749 | 0.777 | 0.807 | 0.737
56 | GTGCGA | 0.849 | 0.829 | 0.956 | 0.829 | 0.927 | 0.848
57 | GAGCCG | 0.41 | 0.436 | 0.372 | 0.447 | 0.403 | 0.433
58 | AGAAAG | 0.838 | 0.857 | 0.904 | 0.823 | 0.825 | 0.88
59 | CCAAGG | 0.928 | 0.969 | 0.946 | 0.911 | 0.873 | 0.891
60 | GTAGGA | 0.652 | 0.536 | 0.533 | 0.594 | 0.589 | 0.603
